PubChem BioAssay AID1259308 – NCATS, 2017

- Assay: 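Knock-downs that increase output of a recombinant reporter protein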 (primary screen)
- System: human HEK293 embryonic kidney cells stably expressing firefly luciferase (HEK-CMV-Luc2-Hygro)
- Reagents: single siRNA against human genes, 0.8 pmol siRNA per well
- Timing: 72 h
- Measured: 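Reporter luminescence and viable-cell signal on separate replicate plates, given as percent of non-targeting control and median/MAD z-scores, plus per-cell luciferase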
- Scale: total luciferase, z-score and total luciferase, % of control: higher = more reporter protein produced; luciferase per cell, z-score: higher = more reporter output per viable cell; viable cells, % of control: higher = more viable cells
- Rule for the call: 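An siRNA counts as active if its total luciferase robust z-score exceeds 3; genes with two or more such siRNAs out of three were retested with fresh siRNAs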
- Calls: active = raised luciferase; inactive = no rise
Shown is a random part of about 59,000 reagents tested. About 1,510 of them (2.6%) were called active. 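Calls use total luciferase alone and ignore viability, so some active siRNAs may act by altering cell number.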

Gene | PubChem SID | total luciferase, z-score | total luciferase, % of control | luciferase per cell, z-score | viable cells, % of control | Outcome
CAPN1-AS1 | SID160734439 | -0.0435 | 81 | -0.0962 | 92.9 | inactive
CAPN1-AS1 | SID160772303 | -0.75 | 67 | -0.403 | 83.2 | inactive
CAPN1-AS1 | SID160772304 | -0.302 | 75.9 | -0.474 | 96.1 | inactive
ADAD2 | SID160724891 | 1.56 | 113 | 0.424 | 113 | inactive
ADAD2 | SID160759892 | 0.0694 | 83.3 | 1.24 | 67.1 | inactive
ADAD2 | SID160759893 | 3.08 | 143 | 3.41 | 65.2 | active
HLA-L | SID160767946 | 1.57 | 113 | 0.724 | 104 | inactive
HLA-L | SID160767947 | 0.389 | 89.6 | -0.339 | 110 | inactive
HLA-L | SID160767948 | -0.0494 | 80.9 | -0.893 | 114 | inactive
GPR3 | SID160772992 | -0.0562 | 80.8 | 0.807 | 73 | inactive
GPR3 | SID160773001 | -0.518 | 71.6 | -0.189 | 84.1 | inactive
GPR3 | SID160773013 | 0.0549 | 83 | 2.09 | 53.5 | inactive
G6PC3 | SID160776191 | 2.35 | 129 | 1.59 | 94.6 | inactive
G6PC3 | SID160776202 | -1.49 | 52.2 | -0.0638 | 59.4 | inactive
G6PC3 | SID160776212 | 1.93 | 120 | 1.41 | 92.7 | inactive
SHISA8 | SID160725406 | -0.111 | 79.7 | 0.219 | 84.1 | inactive
SHISA8 | SID160725407 | 1.5 | 112 | 1.26 | 89.6 | inactive
SHISA8 | SID160725408 | -0.109 | 79.7 | -0.37 | 98.2 | inactive
BUB3 | SID160721671 | -0.031 | 81.3 | 0.54 | 78.8 | inactive
BUB3 | SID160721672 | 1.42 | 110 | 1.83 | 76 | inactive
BUB3 | SID160721673 | -1.65 | 49 | -1.05 | 72.2 | inactive
RACGAP1 | SID160739133 | -0.635 | 69.3 | -0.596 | 90.6 | inactive
RACGAP1 | SID160739134 | 0.289 | 87.6 | 0.151 | 94.1 | inactive
RACGAP1 | SID160739135 | -0.484 | 72.3 | 0.479 | 71.2 | inactive
NDUFA8 | SID160777850 | -1.36 | 54.8 | -0.602 | 71.8 | inactive
NDUFA8 | SID160777851 | 0.0229 | 82.3 | -0.0168 | 92.4 | inactive
NDUFA8 | SID160777852 | -0.611 | 69.7 | -0.553 | 90.1 | inactive
DHRS7C | SID160730755 | 0.406 | 90 | 1.19 | 73.5 | inactive
DHRS7C | SID160760930 | 0.156 | 85 | 0.31 | 87.5 | inactive
DHRS7C | SID160760931 | -1.41 | 53.9 | -1.11 | 80.6 | inactive
ASS1 | SID160720908 | 1.52 | 112 | 0.932 | 98.1 | inactive
ASS1 | SID160720918 | -1.22 | 57.6 | -0.973 | 83.2 | inactive
ASS1 | SID160720929 | 0.865 | 99.1 | 0.874 | 88 | inactive
TMEM64 | SID160760338 | -0.962 | 62.7 | 0.711 | 58.1 | inactive
TMEM64 | SID160760339 | -2.01 | 41.8 | -0.959 | 60.1 | inactive
TMEM64 | SID160760340 | 0.263 | 87.1 | 0.139 | 93.8 | inactive
SLC29A1 | SID160760523 | -0.344 | 75 | 0.224 | 79 | inactive
SLC29A1 | SID160760534 | -1.97 | 42.8 | -2.68 | 96.8 | inactive
SLC29A1 | SID160760543 | 0.932 | 100 | 0.229 | 106 | inactive
PRDM15 | SID160747360 | 1.17 | 105 | 1.41 | 81 | inactive
PRDM15 | SID160747362 | 3.39 | 149 | 2.44 | 87.9 | active
PRDM15 | SID160747363 | 0.0586 | 83.1 | 0.263 | 86.6 | inactive
FBXO17 | SID160755178 | 4.63 | 174 | 2.4 | 103 | active
FBXO17 | SID160755179 | 0.283 | 87.5 | 1.17 | 72 | inactive
FBXO17 | SID160755180 | -0.975 | 62.5 | -0.688 | 83.7 | inactive
COL6A4P1 | SID160764816 | 0.379 | 89.4 | 0.501 | 87.6 | inactive
COL6A4P1 | SID160764817 | -0.0305 | 81.3 | 0.539 | 78.8 | inactive
COL6A4P1 | SID160764818 | -0.793 | 66.1 | -1.27 | 103 | inactive
COL6A4P1 | SID160774189 | -0.771 | 66.6 | -0.206 | 78.5 | inactive
COL6A4P1 | SID160774190 | 2.77 | 137 | 2.96 | 70.3 | inactive
COL6A4P1 | SID160774191 | 1.63 | 114 | 1.53 | 85.4 | inactive
ANGPTL4 | SID160731355 | 0.862 | 99 | -0.171 | 116 | inactive
ANGPTL4 | SID160740136 | -0.734 | 67.3 | -1.17 | 102 | inactive
ANGPTL4 | SID160740138 | -1.31 | 55.8 | -0.983 | 80.7 | inactive
FBXO5 | SID160737882 | 1.08 | 103 | 1.1 | 86.4 | inactive
FBXO5 | SID160737883 | -1.36 | 54.9 | -0.0226 | 61.7 | inactive
FBXO5 | SID160737884 | -0.112 | 79.7 | -0.0911 | 91.2 | inactive
SACK1B | SID160761873 | -0.365 | 74.6 | -0.657 | 99.1 | inactive
SACK1B | SID160761874 | 0.291 | 87.7 | -0.344 | 107 | inactive
SACK1B | SID160761875 | 2.2 | 126 | 1.64 | 91.1 | inactive
RAD50 | SID160776337 | 0.474 | 91.3 | 0.728 | 84.2 | inactive
RAD50 | SID160776347 | 0.792 | 97.6 | 0.445 | 97.1 | inactive
RAD50 | SID160776358 | -0.18 | 78.3 | -0.303 | 94.8 | inactive
GH2 | SID160730948 | 0.369 | 89.2 | 0.319 | 91.7 | inactive
GH2 | SID160770735 | 1.16 | 105 | 0.492 | 103 | inactive
GH2 | SID160770745 | 1.99 | 121 | 1.29 | 96.7 | inactive
ABCB7 | SID160777011 | -1.9 | 44 | -1.86 | 80.4 | inactive
ABCB7 | SID160777020 | 0.413 | 90.1 | 0.0659 | 98.9 | inactive
ABCB7 | SID160777030 | -0.59 | 70.1 | -0.115 | 80.8 | inactive
OR12D2 | SID160738061 | 0.843 | 98.7 | 0.839 | 88.4 | inactive
OR12D2 | SID160738062 | 0.0238 | 82.4 | -0.408 | 102 | inactive
OR12D2 | SID160738063 | 1.54 | 113 | 0.508 | 110 | inactive
PPP1R35 | SID160724935 | 1.93 | 120 | 1.48 | 91 | inactive
PPP1R35 | SID160761772 | 0.525 | 92.3 | 0.389 | 93.1 | inactive
PPP1R35 | SID160761773 | 0.92 | 100 | 2.01 | 66 | inactive

Ordered by “total luciferase, % of control” (high to low): 7 of the entries above
Gene | PubChem SID | total luciferase, z-score | total luciferase, % of control | luciferase per cell, z-score | viable cells, % of control | Outcome
SACK1B | SID160761875 | 2.2 | 126 | 1.64 | 91.1 | inactive
FBXO5 | SID160737882 | 1.08 | 103 | 1.1 | 86.4 | inactive
RAD50 | SID160776337 | 0.474 | 91.3 | 0.728 | 84.2 | inactive
SACK1B | SID160761874 | 0.291 | 87.7 | -0.344 | 107 | inactive
FBXO5 | SID160737884 | -0.112 | 79.7 | -0.0911 | 91.2 | inactive
SACK1B | SID160761873 | -0.365 | 74.6 | -0.657 | 99.1 | inactive
FBXO5 | SID160737883 | -1.36 | 54.9 | -0.0226 | 61.7 | inactive
